Reference: paper PMC10288505 (Journal of the American Chemical Society, 2023)
Strings that start with PEPTIDE1 are HELM notation: dots part the residues, brackets hold end groups and non-standard residues.

Experiment: general procedure: Fmoc solid-phase peptide synthesis; Rink Amide resin (loading 0.45 mmol/g); N-HBTU/DIEA; HATU/DIEA for TAMRA
Details: whole synthesis, overall

Row | Substance | isolated yield [%]
1 | PEPTIDE1{R.R.R.R.R.R.R.R.[am]}$$$$V2.0 | 37
2 | PEPTIDE1{R.R.R.R.R.R.[am]}$$$$V2.0 | 55
